In patent US20070149588A1, “6-(2,3,6-Trifluorophenyl)triazolopyrimidines, their preparation and their use for controlling harmful fungi, and compositions comprising these compounds” (priority 2003, published 2007):
Some entries share one result that the patent states for a list of compounds.

Test system: Pyrenophora [syn. Drechslera] teres
Assay: Activity against net blotch of barley caused by Pyrenophora teres, protective application
Type: in vivo
Details: 250 ppm, protective spray on barley seedlings cv. Hanna, inoculated 24 h later, assessed visually after 6 days; untreated plants 100% infected

Compound	infection of the entire leaf area
COc1nc2ncnn2c(NC2CCCC2)c1-c1c(F)ccc(F)c1F [I-2, 5-methoxy-6-(2,3,6-trifluorophenyl)-7-cyclopentylamino-1,2,4-triazolo[1,5a]pyrimidine]	not more than 7%
Cc1nc2ncnn2c(N2CCCCC2C)c1-c1c(F)ccc(F)c1F (stereo not drawn) [I-3, 5-methyl-6-(2,3,6-trifluorophenyl)-7-(2-methylpiperidinyl)-1,2,4-triazolo[1,5a]pyrimidine]	not more than 7%
CC1CCCCN1c1c(-c2c(F)ccc(F)c2F)c(C#N)nc2ncnn12 (stereo not drawn) [I-1, 5-cyano-6-(2,3,6-trifluorophenyl)-7-(2-methylpiperidinyl)-1,2,4-triazolo[1,5a]pyrimidine]	not more than 7%
